Literature values as cited in patent US20200315965A1, “NANOEMULSION CONCENTRATE FORMULATIONS AND METHODS” (priority 2019, published 2020).

Conditions: water

Compound: C=C(C)[C@@H]1CCC(C)=C[C@H]1c1c(O)cc(CCCCC)cc1O [CBD, cannabidiol]
- aqueous solubility: approximately 0.013 milligrams per milliliter
